From PubChem BioAssay AID328 (DTP/NCI, 2004)
The list shows only some results of the screen, not a fair sample: it gathers tests that were run many times, whatever their T/C, doses with no T/C, and many T/C values between a quarter and a half above the control. Other doses and runs of a compound stand elsewhere. T/C gives the treated animals as a percentage of the vehicle group. Some entries give survivors of the animals treated and no T/C: the source holds a T/C of zero for them, seemingly a mark for toxic or unscored doses. Some doses without a T/C left all or most animals alive at the check, yet need not have been tolerated: survival well below the control is almost never listed, so the zero probably covers shortened survival too. Counts of survivors are from the toxicity check (mostly the fifth day) where no day follows; animals may have died later. Schedule codes are those of the source, read here as Q, the interval in days (D) or hours (H), X, the number of doses. For survival time, this PubChem deposit counts one and a half times the control or more as active, and values a quarter to a half above the control carry no call in these data; other NCI protocols may use other cut-offs. Some doses were run more than once; their values stand side by side, smallest first. Some T/C values carry the count of animals alive at the toxicity check (mostly the fifth day); where none is given, no animal had died by that day.

Test system: BDF1 mice, P388 leukemia ip, median survival T/C
Assay: NCI In Vivo Anticancer Drug Screen. Data for tumor model P388 Leukemia (intraperitoneal) in B6D2F1 (BDF1) mice
Details: T/C endpoint: median survival time, higher T/C = longer survival
Summary of the method: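 Each value expresses how treatment altered survival: treated-mouse outcome over vehicle-mouse outcome, both groups bearing the transplanted tumour.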

[1] = dose: 12.5 mg/kg/injection, schedule: Q01DX009 (ip), vehicle: saline with Tween-80
[2] = dose: 25.0 mg/kg/injection, schedule: Q01DX009 (ip), vehicle: saline with Tween-80
[3] = dose: 50.0 mg/kg/injection, schedule: Q01DX009 (ip), vehicle: saline with Tween-80
[4] = dose: 100.0 mg/kg/injection, schedule: Q01DX009 (ip), vehicle: saline with Tween-80
[5] = dose: 100.0 mg/kg/injection, schedule: Q04DX003 (ip), vehicle: saline with Tween-80
[6] = dose: 200.0 mg/kg/injection, schedule: Q01DX009 (ip), vehicle: saline with Tween-80
[7] = dose: 200.0 mg/kg/injection, schedule: Q04DX003 (ip), vehicle: saline with Tween-80
[8] = dose: 400.0 mg/kg/injection, schedule: Q04DX003 (ip), vehicle: saline
[9] = dose: 100.0 mg/kg/injection, schedule: Q01DX009 (ip), vehicle: Klucel (hydroxypropylcellulose) (HPC)
[10] = dose: 200.0 mg/kg/injection, schedule: Q01DX009 (ip), vehicle: Klucel (hydroxypropylcellulose) (HPC)
[11] = dose: 100.0 mg/kg/injection, schedule: Q01DX009 (ip), vehicle: saline
[12] = dose: 400.0 mg/kg/injection, schedule: Q01DX009 (ip), vehicle: Klucel (hydroxypropylcellulose) (HPC)
[13] = dose: 400.0 mg/kg/injection, schedule: Q04DX003 (ip), vehicle: saline with Tween-80
[14] = dose: 50.0 mg/kg/injection, schedule: Q01DX009 (ip), vehicle: saline

In the case of `Cn1c(CCCC(=O)O)nc2cc(N(CCCl)CCCl)ccc21`, the T/C (dose: 2.8 mg/kg/injection, schedule: Q04DX003 (ip), vehicle: saline) is reported as 125 % of control and the T/C (dose: 20.0 mg/kg/injection, schedule: Q01DX009 (ip), vehicle: saline) is reported as 125 % of control.
With `COC(=O)C(Cc1ccc(N(CCCl)CCCl)cc1)N=NNc1nc[nH]c1C(N)=O` (configuration not stated) the survivor count [1] was 6 of 6, the T/C (dose: 21.0 mg/kg/injection, schedule: Q04DX003 (ip), vehicle: saline) was 145 % of control and the survivor count [2] was 6 of 6. The survivor count [3] was 6 of 6 and the survivor count (dose: 75.0 mg/kg/injection, schedule: Q04DX003 (ip), vehicle: saline) was 6 of 6.
`CCOc1cccc2c1C(=O)c1c(O)c3c(c(O)c1C2=O)C[C@@](O)(C(C)=O)C[C@@H]3OC1CC(N)C(O)C(C)O1` (some centres not stated) was tested, and the T/C (dose: 12.5 mg/kg/injection, schedule: Q04DX003 (ip), vehicle: water) was 127 % of control, the T/C (dose: 25.0 mg/kg/injection, schedule: Q04DX003 (ip), vehicle: water) was 136 % of control and the survivor count (dose: 100.0 mg/kg/injection, schedule: Q04DX003 (ip), vehicle: water) was 2 of 6.
`CCC1=C2C(=O)c3ccccc3C2=C(C)S(=O)(=O)O1` was tested, and the T/C [1] was 136 % of control, the T/C [2] was 127 % of control and the survivor count [3] was 4 of 6. For the same compound, the T/C (dose: 50.0 mg/kg/injection, schedule: Q04DX003 (ip), vehicle: saline with Tween-80) was 127 % of control, the survivor count [4] was 0 of 6 and the T/C [5] was 133 % of control [5 of 6 alive]. For the same compound, the survivor count [6] was 0 of 6 and the T/C [7] was 127 % of control.
For `CN=C(N)c1ccc(N=C(N)c2ccc(-c3ccc(C(N)=Nc4ccc(C(N)=NC)cc4)cc3)cc2)cc1`, the T/C (dose: 6.25 mg/kg/injection, schedule: Q01DX009 (ip), vehicle: saline) was 134 % of control, the T/C (dose: 8.0 mg/kg/injection, schedule: Q01DX009 (ip), vehicle: saline) was 135 % of control and the T/C (dose: 12.0 mg/kg/injection, schedule: Q01DX009 (ip), vehicle: saline) was 135 % of control. For the same compound, the T/C (dose: 12.5 mg/kg/injection, schedule: Q01DX009 (ip), vehicle: saline) was 138 % of control, the survivor count (dose: 25.0 mg/kg/injection, schedule: Q04DX003 (ip), vehicle: saline) was 2 of 6 and the survivor count (dose: 50.0 mg/kg/injection, schedule: Q04DX003 (ip), vehicle: saline) was 0 of 6. The survivor count (dose: 100.0 mg/kg/injection, schedule: Q04DX003 (ip), vehicle: saline) was 0 of 6, the survivor count (dose: 200.0 mg/kg/injection, schedule: Q04DX003 (ip), vehicle: saline) was 0 of 6 and the survivor count [8] was 0 of 6.
In the case of `O=C1CSCC(=O)O1`, the survivor count [9] is reported as 4 of 6 and the survivor count [10] is reported as 0 of 6.
For `[O-][n+]1c(CN2CCCCC2)nc2cccc3c2c1-c1ccccc1-3`, the T/C [9] was 144 % of control, the survivor count [11] was 5 of 8 and the T/C [6] was 131 % of control [7 of 8 alive]. For the same compound, the T/C (dose: 200.0 mg/kg/injection, schedule: Q08HX027 (ip), vehicle: saline) was 128 % of control, the T/C [12] was 144 % of control and the T/C (dose: 400.0 mg/kg/injection, schedule: Q01DX009 (ip), vehicle: saline with Tween-80) was 133 % of control.
In the case of `O=C(NO)c1ccc([N+](=O)[O-])cc1`, the T/C (dose: 400.0 mg/kg/injection, schedule: Q01DX010 (ip), vehicle: water) is reported as 127 and 136 % of control, the survivor count (dose: 530.0 mg/kg/injection, schedule: Q01DX010 (ip), vehicle: water) is reported as 5 of 6 and the survivor count (dose: 800.0 mg/kg/injection, schedule: Q01DX010 (ip), vehicle: water) is reported as 0 of 6.
With `O=[N+]([O-])c1ccc(C=C2C(Cl)=C(Cl)C(Cl)=C2Cl)cc1` the survivor count [3] was 3 of 6, the survivor count [4] was 0 of 6 and the survivor count [6] was 0 of 6.
In the case of `CC(=O)N1C(=O)NC(=O)C1(C)c1ccco1` (configuration not stated), the survivor count [3] is reported as 6 of 6 and the survivor count [13] is reported as 4 of 6.
With `CC(=O)Oc1ccc(OC(C)=O)c2c1CC(C)=C(C)C2` the T/C [8] was 126 % of control [5 of 6 alive].
With `O=NN(CCCl)C(=O)N[C@@H]1CCCC[C@H]1NC(=O)N(CCCl)N=O` the T/C (dose: 1.0 mg/kg/injection, schedule: Q04DX003 (ip), vehicle: Klucel (hydroxypropylcellulose) (HPC)) was 127 % of control, the T/C (dose: 1.5 mg/kg/injection, schedule: Q01DX009 (ip), vehicle: Klucel (hydroxypropylcellulose) (HPC)) was 127 % of control and the T/C (dose: 2.0 mg/kg/injection, schedule: Q04DX003 (ip), vehicle: Klucel (hydroxypropylcellulose) (HPC)) was 131 % of control. For the same compound, the T/C (dose: 2.5 mg/kg/injection, schedule: Q04DX003 (ip), vehicle: Klucel (hydroxypropylcellulose) (HPC)) was 125 % of control, the T/C (dose: 3.0 mg/kg/injection, schedule: Q01DX009 (ip), vehicle: Klucel (hydroxypropylcellulose) (HPC)) was 145 % of control and the T/C (dose: 3.0 mg/kg/injection, schedule: Q04DX003 (ip), vehicle: Klucel (hydroxypropylcellulose) (HPC)) was 140 % of control. For the same compound, the T/C (dose: 4.0 mg/kg/injection, schedule: Q04DX003 (ip), vehicle: Klucel (hydroxypropylcellulose) (HPC)) was 141 % of control, the T/C (dose: 25.0 mg/kg/injection, schedule: Q01DX009 (ip), vehicle: Klucel (hydroxypropylcellulose) (HPC)) was 133 % of control and the survivor count (dose: 37.5 mg/kg/injection, schedule: Q01DX009 (ip), vehicle: Klucel (hydroxypropylcellulose) (HPC)) was 6 of 6. For the same compound, the survivor count [14] was 6 of 6, the survivor count (dose: 75.0 mg/kg/injection, schedule: Q01DX009 (ip), vehicle: saline) was 6 of 6 and the survivor count [9] was 6 of 6. For the same compound, the survivor count [10] was 6 of 6, the survivor count [12] was 3 of 6 and the survivor count (dose: 400.0 mg/kg/injection, schedule: Q04DX003 (ip), vehicle: Klucel (hydroxypropylcellulose) (HPC)) was 6 of 6. For the same compound, the survivor count (dose: 600.0 mg/kg/injection, schedule: Q04DX003 (ip), vehicle: Klucel (hydroxypropylcellulose) (HPC)) was 5 of 6.
In the case of `C=COCC(C)C` (tested in a mixture with another compound), the survivor count (dose: 3.12 mg/kg/injection, schedule: Q01DX009 (ip), vehicle: Klucel (hydroxypropylcellulose) (HPC)) is reported as 4 of 6, the survivor count (dose: 6.25 mg/kg/injection, schedule: Q01DX009 (ip), vehicle: Klucel (hydroxypropylcellulose) (HPC)) is reported as 0 of 6 and the survivor count (dose: 35.0 mg/kg/injection, schedule: Q01DX009 (ip), vehicle: saline with Tween-80) is reported as 3 of 6.
For `CCCCCCCCCCCCCCCCC(C(=O)O)C(O)(CC(=O)O)C(=O)O` (configuration not stated), the survivor count (dose: 100.0 mg/kg/injection, schedule: Q01DX010 (ip), vehicle: saline) was 1 of 6.
`C=C(C)[C@@H]1CC[C@]2(CO)CC[C@]3(C)[C@H](CC[C@@H]4[C@@]5(C)CC[C@H](O)C(C)(C)[C@@H]5CC[C@]43C)[C@@H]12` was tested, and the survivor count (dose: 300.0 mg/kg/injection, schedule: Q01DX009 (ip), vehicle: other) was 3 of 3.
With `CN=S(=O)(OCCCCOS(=O)(=NC)c1ccc(C)cc1)c1ccc(C)cc1` (configuration not stated) the T/C [5] was 125 % of control and the T/C [7] was 139 % of control.
For `COc1cc(-c2nc3ccccc3c(=O)o2)cc(OC)c1OC`, the survivor count [13] was 1 of 6.
With `O=C(NCCCCCCCCCCNC(=O)N1CC1)N1CC1` the T/C (dose: 2.0 mg/kg/injection, schedule: Q04DX003 (ip), vehicle: saline with Tween-80) was 145 % of control, the survivor count [5] was 1 of 6 and the survivor count [7] was 0 of 6. The survivor count [13] was 0 of 6.
In the case of `OCCNCc1ccc2ccccc2n1`, the survivor count [8] is reported as 1 of 6.
`CC(=O)Nc1c(Cl)cc2c(c1Cl)Cc1cc([N+](=O)[O-])ccc1-2` was tested, and the survivor count [13] was 6 of 6.
With `CC(N)Cc1c(Cl)cc(N(C)C)cc1Cl` (configuration not stated) the survivor count [14] was 0 of 6, the survivor count [11] was 0 of 6 and the survivor count (dose: 200.0 mg/kg/injection, schedule: Q01DX009 (ip), vehicle: saline) was 0 of 6.
